Laboratory results from article doi:10.1101/2021.06.03.447014.
These are yes or no findings as the source states them, for the method shown. Binding seen in cells or lysates may run through a third protein. Some entries that bind do so weakly or less than the wild type.

Chains of the proteins cited; added tags and fusions are not shown.
UniProt Q86VP1: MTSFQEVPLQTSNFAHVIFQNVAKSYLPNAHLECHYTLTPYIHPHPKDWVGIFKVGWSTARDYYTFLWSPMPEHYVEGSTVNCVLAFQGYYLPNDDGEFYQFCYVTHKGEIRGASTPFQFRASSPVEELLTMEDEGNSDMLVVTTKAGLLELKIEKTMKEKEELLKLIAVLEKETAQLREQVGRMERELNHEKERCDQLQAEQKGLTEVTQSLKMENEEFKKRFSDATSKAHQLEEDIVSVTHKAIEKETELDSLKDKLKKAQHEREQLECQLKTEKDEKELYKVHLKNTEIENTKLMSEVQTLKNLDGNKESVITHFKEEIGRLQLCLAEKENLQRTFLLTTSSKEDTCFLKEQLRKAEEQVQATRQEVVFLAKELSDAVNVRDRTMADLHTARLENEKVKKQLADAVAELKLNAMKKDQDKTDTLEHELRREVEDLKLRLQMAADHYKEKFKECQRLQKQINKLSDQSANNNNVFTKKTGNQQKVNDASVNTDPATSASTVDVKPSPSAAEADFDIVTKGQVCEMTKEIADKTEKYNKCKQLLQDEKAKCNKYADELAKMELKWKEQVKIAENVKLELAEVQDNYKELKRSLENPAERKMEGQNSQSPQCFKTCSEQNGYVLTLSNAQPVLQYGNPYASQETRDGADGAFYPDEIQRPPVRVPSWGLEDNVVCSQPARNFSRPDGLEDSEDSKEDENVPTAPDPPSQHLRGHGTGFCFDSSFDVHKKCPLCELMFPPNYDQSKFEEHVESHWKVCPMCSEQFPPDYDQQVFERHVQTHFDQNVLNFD
UniProt P03418: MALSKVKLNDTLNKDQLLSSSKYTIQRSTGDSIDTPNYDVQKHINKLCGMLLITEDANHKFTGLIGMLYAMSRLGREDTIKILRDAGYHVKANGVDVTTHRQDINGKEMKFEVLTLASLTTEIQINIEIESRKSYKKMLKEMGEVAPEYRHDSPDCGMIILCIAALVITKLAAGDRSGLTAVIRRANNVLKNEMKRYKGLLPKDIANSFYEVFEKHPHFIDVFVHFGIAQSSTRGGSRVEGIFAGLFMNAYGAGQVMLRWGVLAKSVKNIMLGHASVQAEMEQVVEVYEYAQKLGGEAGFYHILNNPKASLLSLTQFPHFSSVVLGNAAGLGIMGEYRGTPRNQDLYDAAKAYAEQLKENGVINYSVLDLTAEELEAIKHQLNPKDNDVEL

Molecular target: Flag-TAX1BP1 fusion protein (UniProt Q86VP1)
Experiment: co-IP

RSV N protein expressed from plasmid p-N (from UniProt P03418 1-391)
binding: binds
